Data set [1] concerns IFIT1, MX1, OAS1, ISG15 mRNA in PBMC. The conditions noted are these: 200 and 20 nM RAC1 siRNA, 24±2 hours, qPCR. (In general: Quantitative PCR measures a nucleic acid by following its amplification.)
Data set [2] relates to IL-6 and TNF-α secretion by PBMC. Nature of the data set: Innate immune activation: cytokine induction in PBMC. The note with it: 200 and 20 nM RAC1 siRNA, 24±2 hours, ELISA. On the technique in general: In an ELISA, binding on a coated surface is turned into a signal by an enzyme label.

Take `CCCc1nc2c(N)nc3ccccc3c2s1` [CL075]: in data set [1], the “mRNA levels of IFIT1, MX1, OAS1 and ISG15” value is listed as “increase in the expression levels of the genes tested”. Also, in data set [2], the “IL-6 and TNFα cytokine secretion” value was “induced high and significant IL-6 and TNFα secretion”.

These data come from US10722599B2, “Lipid assemblies and uses thereof and some pH and electrostatic modulating lipids to be used in said assemblies” (Yissum Research Development Company of the Hebrew …, priority 2015, dated 2020).
